Reference: patent US6787531B1, “Pharmaceutical composition for use as a contraceptive” (Schering AG, priority 1999, dated 2004)
At least one compound was matched to its structure with a doubt left.

Assay: Dissolution rate of ethinylestradiol from tablets in vitro, USP Paddle Method
Type: physicochemical
Conditions: 900 ml water, 37° C., 50 rpm

C#C[C@]1(O)CC[C@H]2[C@@H]3CCc4cc(O)ccc4[C@H]3CC[C@@]21C [ethinylestradiol, 17α-ethinylestradiol]
ethinylestradiol dissolved within 30 minutes (film-coated tablets, FIG. 5): more than 70% | ethinylestradiol dissolved within 30 minutes (tablet cores, FIG. 4): more than 70%
